The record followed here is PMC8666665.

Sequences of proteins named here, by UniProt entry; tags and fusion partners are left off. A change or cut given only in a name is not applied to a line headed by its entry. Residues count along the entry.
UniProt Q9Y572: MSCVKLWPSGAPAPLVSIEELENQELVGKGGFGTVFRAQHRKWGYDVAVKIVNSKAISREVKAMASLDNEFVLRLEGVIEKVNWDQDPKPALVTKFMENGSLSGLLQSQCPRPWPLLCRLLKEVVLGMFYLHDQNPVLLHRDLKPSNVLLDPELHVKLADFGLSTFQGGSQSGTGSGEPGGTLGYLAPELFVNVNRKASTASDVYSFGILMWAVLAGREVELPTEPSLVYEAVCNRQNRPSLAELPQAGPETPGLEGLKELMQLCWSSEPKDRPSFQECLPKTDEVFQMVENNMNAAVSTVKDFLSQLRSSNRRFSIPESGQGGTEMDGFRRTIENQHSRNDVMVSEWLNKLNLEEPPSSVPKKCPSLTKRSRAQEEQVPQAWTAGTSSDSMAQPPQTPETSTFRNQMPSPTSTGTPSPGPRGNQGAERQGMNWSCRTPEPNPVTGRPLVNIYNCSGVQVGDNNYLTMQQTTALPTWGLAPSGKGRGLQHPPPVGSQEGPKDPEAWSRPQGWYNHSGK
UniProt P19838, residues 1-433: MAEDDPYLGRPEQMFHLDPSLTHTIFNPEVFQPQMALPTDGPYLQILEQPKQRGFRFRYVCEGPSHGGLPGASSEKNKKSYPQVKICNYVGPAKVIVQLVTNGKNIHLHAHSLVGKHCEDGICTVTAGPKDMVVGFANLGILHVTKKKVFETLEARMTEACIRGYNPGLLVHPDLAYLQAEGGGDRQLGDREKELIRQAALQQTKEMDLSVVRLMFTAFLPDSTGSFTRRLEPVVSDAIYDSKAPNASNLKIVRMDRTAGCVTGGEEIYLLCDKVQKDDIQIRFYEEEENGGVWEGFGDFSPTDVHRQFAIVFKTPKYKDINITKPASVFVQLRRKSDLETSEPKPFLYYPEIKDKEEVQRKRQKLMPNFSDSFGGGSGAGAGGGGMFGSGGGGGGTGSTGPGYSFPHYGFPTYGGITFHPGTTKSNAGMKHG
UniProt Q04206: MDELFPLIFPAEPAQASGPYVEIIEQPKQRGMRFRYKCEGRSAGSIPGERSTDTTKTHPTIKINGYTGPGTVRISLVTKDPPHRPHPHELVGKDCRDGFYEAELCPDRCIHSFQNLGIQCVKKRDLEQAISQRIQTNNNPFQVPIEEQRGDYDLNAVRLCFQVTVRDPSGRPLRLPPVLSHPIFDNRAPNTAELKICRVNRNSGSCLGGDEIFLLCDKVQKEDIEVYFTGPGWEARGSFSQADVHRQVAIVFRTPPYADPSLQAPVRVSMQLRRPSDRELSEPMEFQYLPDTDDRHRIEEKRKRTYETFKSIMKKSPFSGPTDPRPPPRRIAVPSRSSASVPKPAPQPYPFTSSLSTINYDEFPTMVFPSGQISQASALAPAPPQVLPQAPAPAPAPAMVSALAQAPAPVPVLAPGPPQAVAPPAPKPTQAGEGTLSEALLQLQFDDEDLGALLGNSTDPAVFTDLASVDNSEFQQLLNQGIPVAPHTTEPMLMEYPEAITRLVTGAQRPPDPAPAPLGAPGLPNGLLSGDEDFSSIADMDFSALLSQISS
UniProt Q13546: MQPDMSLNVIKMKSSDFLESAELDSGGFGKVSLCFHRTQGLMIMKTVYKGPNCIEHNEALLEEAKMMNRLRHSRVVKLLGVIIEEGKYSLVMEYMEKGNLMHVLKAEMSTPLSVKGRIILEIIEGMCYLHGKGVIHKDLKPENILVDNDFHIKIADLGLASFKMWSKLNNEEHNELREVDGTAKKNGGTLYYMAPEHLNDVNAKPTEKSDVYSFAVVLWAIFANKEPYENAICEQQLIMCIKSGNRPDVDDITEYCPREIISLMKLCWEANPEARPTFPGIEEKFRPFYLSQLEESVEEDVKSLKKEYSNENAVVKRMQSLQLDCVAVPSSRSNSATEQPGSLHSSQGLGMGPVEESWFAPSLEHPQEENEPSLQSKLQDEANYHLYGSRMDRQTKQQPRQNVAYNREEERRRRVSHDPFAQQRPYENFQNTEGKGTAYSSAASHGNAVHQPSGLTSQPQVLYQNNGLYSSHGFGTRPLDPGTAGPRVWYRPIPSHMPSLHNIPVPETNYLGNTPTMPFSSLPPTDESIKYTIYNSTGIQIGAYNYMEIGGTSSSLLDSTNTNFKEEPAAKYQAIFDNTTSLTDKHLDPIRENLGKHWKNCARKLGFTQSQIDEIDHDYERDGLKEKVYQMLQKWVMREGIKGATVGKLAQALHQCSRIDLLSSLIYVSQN

One test deals with T1, GST-KPC2 (UniProt Q9BSL1).
T1 sequence: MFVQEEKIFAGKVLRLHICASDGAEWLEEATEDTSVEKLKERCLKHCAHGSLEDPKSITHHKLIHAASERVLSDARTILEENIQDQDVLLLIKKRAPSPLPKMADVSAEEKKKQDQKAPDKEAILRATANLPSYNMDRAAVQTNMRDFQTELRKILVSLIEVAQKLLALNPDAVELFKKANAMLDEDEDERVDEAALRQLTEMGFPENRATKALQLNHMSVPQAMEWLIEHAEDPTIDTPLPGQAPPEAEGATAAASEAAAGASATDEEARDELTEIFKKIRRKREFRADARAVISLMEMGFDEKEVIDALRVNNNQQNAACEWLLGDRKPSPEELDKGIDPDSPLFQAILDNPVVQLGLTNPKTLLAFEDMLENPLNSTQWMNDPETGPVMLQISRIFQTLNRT
Description: pull-down; cell-free: 100 ng of each purified GST protein mixed 1 h at room temperature in IP buffer (25 mM Hepes, 150 mM NaCl, 2 mM EDTA, 1% Triton X100), anti-V5-agarose beads 2 h at 4°C; immunoblotting; both purified.

Test [1] deals with RIP3 (positive control of the PCA) (UniProt Q9Y572). The test can be described thus: split reporter; protein-fragment complementation assay: Renilla luciferase fragments F1 and F2 fused to the two proteins, co-transfected HEK/293T cells, coelenterazine-h 5 μM.
Test [2] deals with p50 (NF-κB1), endogenous in nuclei of MDA-MB-231 (human (endogenous in MDA-MB-231)) (UniProt P19838). Description: co-IP; p50 immunoprecipitated (p50 antibody, Protein A magnetic beads) from isolated nuclei of parental, CD95 k.o., KPC2 k.o. and CD95/KPC2 double k.o. MDA-MB-231 cells; p65 by immunoblotting. (In general: In western blotting, separated proteins are transferred to a membrane and probed.)

In the next test the target is T2, Flag-KPC2 (UniProt Q9BSL1).
T2 sequence: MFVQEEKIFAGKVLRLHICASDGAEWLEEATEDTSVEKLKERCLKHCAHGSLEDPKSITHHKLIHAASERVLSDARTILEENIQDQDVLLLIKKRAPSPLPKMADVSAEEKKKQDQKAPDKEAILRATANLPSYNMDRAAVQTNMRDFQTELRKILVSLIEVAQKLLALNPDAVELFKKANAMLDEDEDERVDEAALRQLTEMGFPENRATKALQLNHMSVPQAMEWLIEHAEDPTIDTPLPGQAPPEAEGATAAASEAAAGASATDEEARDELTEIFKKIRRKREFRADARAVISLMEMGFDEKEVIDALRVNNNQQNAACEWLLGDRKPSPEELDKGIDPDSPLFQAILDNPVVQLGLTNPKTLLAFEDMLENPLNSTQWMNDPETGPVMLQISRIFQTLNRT
Description: co-IP; Flag immunoprecipitation (antibody-conjugated beads, overnight, IP buffer) from co-transfected CD95 k.o. HEK/293T cells, KPC2 co-transfected; immunoblotting.

Another test has as its target T3, Flag-KPC1 (UniProt Q5XPI4).
T3 sequence: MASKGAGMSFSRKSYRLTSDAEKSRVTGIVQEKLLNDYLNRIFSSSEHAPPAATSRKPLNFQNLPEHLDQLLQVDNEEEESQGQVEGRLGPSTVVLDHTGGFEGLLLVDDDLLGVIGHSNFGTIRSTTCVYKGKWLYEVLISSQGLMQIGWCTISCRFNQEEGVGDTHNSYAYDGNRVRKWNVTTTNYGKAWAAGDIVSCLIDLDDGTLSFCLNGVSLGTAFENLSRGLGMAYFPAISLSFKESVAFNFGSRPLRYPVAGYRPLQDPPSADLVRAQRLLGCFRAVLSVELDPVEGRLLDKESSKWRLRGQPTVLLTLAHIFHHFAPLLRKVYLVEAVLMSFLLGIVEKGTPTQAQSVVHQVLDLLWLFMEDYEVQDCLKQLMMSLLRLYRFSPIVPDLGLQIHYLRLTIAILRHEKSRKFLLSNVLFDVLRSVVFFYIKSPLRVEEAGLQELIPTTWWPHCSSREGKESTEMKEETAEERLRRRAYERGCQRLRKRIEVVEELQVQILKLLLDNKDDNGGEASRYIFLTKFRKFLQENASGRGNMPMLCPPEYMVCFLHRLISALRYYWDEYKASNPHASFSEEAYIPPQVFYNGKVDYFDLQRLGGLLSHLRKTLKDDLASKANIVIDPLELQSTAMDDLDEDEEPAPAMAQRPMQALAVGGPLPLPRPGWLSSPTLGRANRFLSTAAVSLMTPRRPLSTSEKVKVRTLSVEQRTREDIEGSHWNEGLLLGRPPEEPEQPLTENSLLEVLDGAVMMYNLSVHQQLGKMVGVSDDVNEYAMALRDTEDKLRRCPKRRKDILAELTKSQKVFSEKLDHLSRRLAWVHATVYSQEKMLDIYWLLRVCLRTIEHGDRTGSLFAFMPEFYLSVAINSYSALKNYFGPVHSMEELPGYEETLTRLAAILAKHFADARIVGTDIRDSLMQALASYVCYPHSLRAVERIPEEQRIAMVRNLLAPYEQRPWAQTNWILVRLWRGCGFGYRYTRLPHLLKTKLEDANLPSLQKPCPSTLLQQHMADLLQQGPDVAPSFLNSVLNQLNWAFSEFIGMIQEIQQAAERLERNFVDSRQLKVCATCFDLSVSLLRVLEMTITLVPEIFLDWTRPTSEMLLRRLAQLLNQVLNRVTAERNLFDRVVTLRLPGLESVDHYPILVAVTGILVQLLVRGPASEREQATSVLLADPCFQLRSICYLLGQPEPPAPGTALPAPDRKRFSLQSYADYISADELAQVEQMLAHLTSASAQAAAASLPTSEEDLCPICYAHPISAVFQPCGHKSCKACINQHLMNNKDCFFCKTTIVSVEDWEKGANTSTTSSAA
The description is as above.

The next test deals with Flag-p65 (UniProt Q04206). Described as above.

These are yes or no findings as the source states them, for the method shown. For part of these data: In cells and extracts the contact can be indirect. Some entries that bind do so weakly or less than the wild type. For part of these data: Where a sequence is shown, tags or fusion partners need not be part of it.

For “GST-p65 (1-307) (from UniProt Q04206 1-307) (domain or fragment)”, the binding entry in the test with GST-KPC2 is given as “binds”.

Regarding “RIP1 (positive control of the PCA) (from UniProt Q13546 1-671)”, the binding result in test [1] is listed as “binds”.

Take “RelA (p65), endogenous in MDA-MB-231 (from UniProt Q04206 1-551)”: in test [2], the binding entry is given as “binds”.

Consider “p65-Renilla luciferase (domain F1) (from UniProt Q04206 1-551)”, for which, in the test with Flag-KPC2, the binding entry is listed as “binds”.

B1: V5-KPC2 (protein, UniProt Q9BSL1 1-405)
chain: MFVQEEKIFAGKVLRLHICASDGAEWLEEATEDTSVEKLKERCLKHCAHGSLEDPKSITHHKLIHAASERVLSDARTILEENIQDQDVLLLIKKRAPSPLPKMADVSAEEKKKQDQKAPDKEAILRATANLPSYNMDRAAVQTNMRDFQTELRKILVSLIEVAQKLLALNPDAVELFKKANAMLDEDEDERVDEAALRQLTEMGFPENRATKALQLNHMSVPQAMEWLIEHAEDPTIDTPLPGQAPPEAEGATAAASEAAAGASATDEEARDELTEIFKKIRRKREFRADARAVISLMEMGFDEKEVIDALRVNNNQQNAACEWLLGDRKPSPEELDKGIDPDSPLFQAILDNPVVQLGLTNPKTLLAFEDMLENPLNSTQWMNDPETGPVMLQISRIFQTLNRT
B1: the binding result with Flag-KPC1 and in the test with Flag-p65 was “binds” each time.
